From article PMC8006202, “Influence of YES1 Kinase and Tyrosine Phosphorylation on the Activity of OCT1” (Frontiers in Pharmacology, 2021)

Test system: OCT1/OCT2 (OCT1/2)-deficient mice
Experiment: Targeted metabolomics / IBC levels in wild-type versus OCT1/2-deficient mice
Type: in vivo, mouse
[1] = liver, OCT1/2-deficient vs wild-type mice, females
[2] = liver, OCT1/2-deficient vs wild-type mice, males

Compound | Fold-change Female (KO/WT) [1] | Fold-change Male (KO/WT) [2] | Fold-change Female (KO/WT) (mouse, in vivo) | Fold-change Male (KO/WT) (mouse, in vivo)
CCCCCCCC(=O)O[C@H](CC(=O)O)C[N+](C)(C)C [carnitine-C8] | 1.15 | 1.85 |  | 
CC(O)C(=O)O (centres unmarked) [lactate] | 0.85 | 0.87 |  | 
N[C@@H](Cc1ccccc1)C(=O)O [phenyl-alanine] | 0.90 | 0.84 |  | 
Cn1cnc2c(ncn2[C@@H]2O[C@H](CO)[C@@H](O)[C@H]2O)c1=N [1-methyl-adenosine] | 0.81 | 0.85 |  | 
N[C@@H](Cc1c[nH]cn1)C(=O)O [histidine] | 1.17 | 0.84 |  | 
CC(=O)OCC[N+](C)(C)C [acetyl-choline] | 3.02 | 1.77 |  | 
CCC(=O)OCC[N+](C)(C)C [propionylcholine] | 0.37 | 0.52 |  | 
O=C[C@H](O)[C@H](O)[C@H](O)COP(=O)(O)O [ribose 5-phosphate] | 0.85 | 0.91 |  | 
C[N+](C)(C)CCO [choline] | 0.88 | 1.02 |  | 
O=C(O)[C@@H]1CCCN1 [proline] | 0.98 | 0.80 |  | 
NCC(=O)O [glycine] | 0.97 | 0.97 |  | 
SDMA-ADMA | 0.95 | 0.71 |  | 
N=c1c2ncn3c2ncn1[C@@H]1O[C@H](COP(=O)(O)OP(=O)(O)OC[C@H]2O[C@@H]3[C@H](O)[C@@H]2O)[C@@H](O)[C@H]1O [cADP-ribose] | 0.97 | 0.89 |  | 
Cc1ncc(CO)c(CN)c1O [pyridoxamine] | 1.00 | 1.00 |  | 
G6P-F6P | 0.91 | 0.81 |  | 
CCC(=O)O[C@H](CC(=O)[O-])C[N+](C)(C)C [carnitine-C3] | 4.95 | 6.79 |  | 
O=C(O)C(O)Cc1ccccc1 (centres unmarked) [phenyl-lactic acid] | 1.08 | 0.76 |  | 
Nc1nc2c(ncn2[C@@H]2O[C@H](COP(=O)(O)O)[C@@H](O)[C@H]2O)c(=O)[nH]1 [GMP] | 0.81 | 0.76 |  | 
C[N+](C)(C)CCOP(=O)([O-])OC[C@H](O)CO [glycerophosphorylcholine] | 0.87 | 1.25 |  | 
CC(C)(CO)[C@@H](O)C(=O)NCCC(=O)O [pantothenic acid] | 0.93 | 0.57 |  | 
CSCC[C@H](N)C(=O)O [methionine] | 0.70 | 0.88 |  | 
CSC[C@H]1O[C@@H](n2cnc3c(N)ncnc32)[C@H](O)[C@@H]1O [S-methyl-5-thioadenosine] | 0.82 | 0.74 |  | 
CN(CC(=O)O)C(=N)N [creatine] | 0.84 | 0.75 |  | 
NC(=O)NC1NC(=O)NC1=O (centres unmarked) [allantoin] | 0.84 | 0.61 |  | 
Nc1ncnc2c1ncn2[C@@H]1O[C@H](CO)[C@@H](O)[C@H]1O [adenosine] | 0.93 | 0.73 |  | 

Compound | Fold-change Female (KO/WT) [1] | Fold-change Male (KO/WT) [2] | Fold-change Female (KO/WT) (mouse, in vivo) | Fold-change Male (KO/WT) (mouse, in vivo)
C[N+](C)(C)CC(=O)O [betaine] | 1.05 | 0.97 |  | 
NCCS(=O)(=O)O [taurine] | 0.92 | 0.64 |  | 
O=C(CO)[C@@H](O)[C@H](O)[C@H](O)[C@H](O)COP(=O)(O)O [sedoheptulose-7-phosphate] | 1.14 | 0.84 |  | 
CC(=O)N[C@@H](C)C(=O)O [N-acetyl-alanine] | 0.88 | 0.83 |  | 
O=c1cc[nH]c(=O)[nH]1 [uracil] | 1.06 | 0.90 |  | 
CCCCCCC(N)C(=O)O (centres unmarked) [2-amino-octanoic acid] | 0.86 | 0.69 |  | 
NCCCCNCCCN [spermidine] | 1.91 | 0.44 |  | 
NC(N)=NCC(=O)O [guanidoacetic acid] | 0.87 | 0.76 |  | 
NCCCC[C@H](N)C(=O)O [lysine] |  |  | 0.96 | 0.76
Nc1ncnc2c1ncn2[C@@H]1O[C@H](CSCC[C@H](N)C(=O)O)[C@@H](O)[C@H]1O [S-adenosyl-homocysteine] | 1.00 | 1.18 |  | 
Cn1cnc(C[C@H](N)C(=O)O)c1 [1-methyl-histidine] | 0.58 | 0.60 |  | 
N[C@@H](CC(=O)O)C(=O)O [aspartate] | 0.95 | 0.63 |  | 
O=C(O)c1cccnc1C(=O)O [quinolinate] | 0.62 | 0.74 |  | 
hydroxyglutaric acid | 0.52 | 0.95 |  | 
N=C(N)NCCC[C@H](N)C(=O)O [arginine] |  |  | 0.59 | 0.35
NC(=O)c1cccnc1 [nicotinamide] | 1.05 | 1.03 |  | 
Nc1nc2c(ncn2[C@@H]2O[C@H](CO)[C@@H](O)[C@H]2O)c(=O)[nH]1 [guanosine] | 0.93 | 0.80 |  | 
NC(=O)OP(=O)(O)O [carbamoylphosphate] | 0.84 | 0.83 |  | 
Cc1ncc(CO)c(C(=O)O)c1O [4-pyridoxic acid] | 0.84 | 0.63 |  | 
C[n+]1cccc(C(N)=O)c1 [1-methyl-nicotinamide] | 1.30 | 0.29 |  | 
N[C@@H](Cc1c[nH]c2ccccc12)C(=O)O [tryptophan] |  |  | 0.88 | 0.98
Cc1ncc(C[n+]2csc(CCO)c2C)c(N)n1 [thiamine] | 0.86 | 0.79 |  | 
CN1CC(=O)NC1=N [creatinine] | 0.75 | 0.78 |  | 
NCCCC(=O)O [y-aminobutyric acid] | 0.85 | 0.98 |  | 
